Source: publication PMC7606276, “The Antibacterial Effects of New N-Alkylpyridinium Salts on Planktonic and Biofilm Bacteria” (Frontiers in Microbiology, 2020)

Tested on: CHO-K1 cells
Assay: MTT cell viability assay on CHO-K1 cells
Assay type: cell-based, Chinese hamster
Details: Cricetulus griseus, CHO-K1, 24 h, read-out: IC50 ± SEM
Description: Standard MTT assay (3-(4,5-dimethylthiazol-2-yl)-2,5-diphenyltetrazolium bromide; Sigma-Aldrich, Prague, Czechia) was used according to the manufacturer’s protocol on the CHO-K1 (Chinese hamster ovary, ECACC, Salisbury, United Kingdom) in order to compare the effect of different compounds within the series. The cells were cultured according to ECACC recommended conditions and seeded in a density of 8000 per well as described previously ([Soukup et al., 2020]). […] In the case of sodium hypochloride, the commercially available detergent called Savo containing this active compound was diluted to the initial half concentration (i.e., 2.35%) with the supplemented growth medium mentioned above. Thereafter, CHO-K1 cells were exposed to two-fold diluted series A, B, C or ten-fold diluted sodium hypochlorite for 24 h. Then the medium was replaced by a medium containing 0.5 mg/ml of MTT and the cells were allowed to produce formazan for approximately 3 h under surveillance. […] Cell viability was assessed spectrophotometrically by the amount of formazan produced. The absorbance was measured at 570 nm on Synergy HT (BioTek, Winooski, VT, United States). IC50 (half maximal inhibitory concentration) was then calculated from the control – subtracted triplicates using non-linear regression (four parameters) by GraphPad Prism 5.03 or 7.03 software (GraphPad Software Inc., San Diego, CA, United States). […]

SMILES: CCCCCCCCCCCCCCCC[n+]1ccccc1 [Compound A16]
- IC50: 16.7 ± 0.2 µM
